Source: PubChem BioAssay AID1224826 (NIAID, 2016)
Here is a random part of about 17,000 reagents tested. Of all reagents, about 1,110 (6.6%) are marked active. 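Active means lowered or raised reporter signal; replicate intensities are raw and not normalised per plate.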 A number with no mark means an inactive call. The numbers tell different reagents against one gene apart. Further read-outs or replicates are left out here. Reagent sequences are not shown.

Purpose: 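Regulators of Tlr4 signalling leading to Tnf-alpha expression in macrophages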 (primary screen)
System: RAW264.7 G9 macrophages from mouse bearing reporters for p65 (GFP) and the Tnf promoter (mCherry)
Knock-down reagent: siRNA pool against mouse genes, 100 nM
Time to read-out: 16 h of LPS stimulation, after 2 days of siRNA transfection
Conditions: bacterial lipopolysaccharide (Salmonella minnesota R595), 10 ng/ml
Read-out: 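Nuclear mCherry signal of the Tnf promoter reporter measured by imaging after background removal, scaled to each plate median and turned into robust z-scores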
Reading the numbers: Tnf reporter robust z-score: higher = stronger Tnf promoter reporter signal after LPS
Hit rule: 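a well counts as active at a score of -1.3 or below (Tlr4 knock-down control median) or above 3 (raised signal); controls and wells holding fewer than 50 cells are excluded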
Meaning of the calls: active = Tnf reporter clearly lowered or raised; inactive = no clear change in Tnf reporter

Knock-down of Tek (GeneID 21687) came out at: Tnf reporter robust z-score 2.45; fewer than 50 cells in well enough cells in well.
For Iqce (GeneID 74239), the values are Tnf reporter robust z-score 1.72; fewer than 50 cells in well enough cells in well.
For Mrgprx2 (GeneID 243978), the values are Tnf reporter robust z-score 0.3; fewer than 50 cells in well enough cells in well.
For Ddx28 (GeneID 71986) the deposit lists fewer than 50 cells in well fewer than 50 cells per well; well left out of calls.
Silencing of Nipal4 (GeneID 214112) gave: Tnf reporter robust z-score 0.4; fewer than 50 cells in well enough cells in well.
With knock-down of Tmem35a (GeneID 67564), the screen gave Tnf reporter robust z-score 0.47; fewer than 50 cells in well enough cells in well.
For Acadvl (GeneID 11370), the entry reads Tnf reporter robust z-score -0.43; fewer than 50 cells in well enough cells in well.
With knock-down of Cdh10 (GeneID 320873), the screen gave Tnf reporter robust z-score 0.11; fewer than 50 cells in well enough cells in well.
For Dot1l (GeneID 208266), the values are Tnf reporter robust z-score -0.9; fewer than 50 cells in well enough cells in well.
For Or2d2 (GeneID 258776) the deposit lists Tnf reporter robust z-score -0.26; fewer than 50 cells in well enough cells in well.
With knock-down of Clspn (GeneID 269582) the results were Tnf reporter robust z-score -0.13; fewer than 50 cells in well enough cells in well.
Hemk2 (GeneID 67768) scored Tnf reporter robust z-score 0.75; fewer than 50 cells in well enough cells in well.
Against Mapk10 (GeneID 26414) #1 the deposit lists Tnf reporter robust z-score 0.13; fewer than 50 cells in well enough cells in well.
Depletion of Mapk10 (GeneID 26414) #2 resulted in: Tnf reporter robust z-score 0.36; fewer than 50 cells in well enough cells in well.
After knock-down of Fah (GeneID 14085) the results were Tnf reporter robust z-score -0.27; fewer than 50 cells in well enough cells in well.
Smpx (GeneID 66106) gave fewer than 50 cells in well fewer than 50 cells per well; well left out of calls.
Rpl31 (GeneID 114641) showed fewer than 50 cells in well fewer than 50 cells per well; well left out of calls.
For Krr1 (GeneID 52705), the values are Tnf reporter robust z-score 2.22; fewer than 50 cells in well enough cells in well.
Depletion of Rlbp1 (GeneID 19771) came out at: Tnf reporter robust z-score -1.48 (active); fewer than 50 cells in well enough cells in well.
Rhov (GeneID 228543) showed Tnf reporter robust z-score 1.04; fewer than 50 cells in well enough cells in well.
For Pfkp (GeneID 56421) the deposit lists Tnf reporter robust z-score 0.67; fewer than 50 cells in well enough cells in well.
Ppp1r1c (GeneID 75276) showed fewer than 50 cells in well fewer than 50 cells per well; well left out of calls.
Against Or51aa5 (GeneID 258722) the deposit lists Tnf reporter robust z-score 0.85; fewer than 50 cells in well enough cells in well.
Silencing of Pdk1 (GeneID 228026) resulted in: Tnf reporter robust z-score 0.03; fewer than 50 cells in well enough cells in well.
Bak1 (GeneID 12018) scored Tnf reporter robust z-score -0.35; fewer than 50 cells in well enough cells in well.
Rab11fip1 (GeneID 75767) scored Tnf reporter robust z-score -0.12; fewer than 50 cells in well enough cells in well.
After knock-down of Ak4 (GeneID 11639), the screen gave Tnf reporter robust z-score -0.55; fewer than 50 cells in well enough cells in well.

Quoted from the entries so far for reference:
Cdh10 (GeneID 320873) — Tnf reporter robust z-score = 0.11; fewer than 50 cells in well = enough cells in well
Dot1l (GeneID 208266) — Tnf reporter robust z-score = -0.9; fewer than 50 cells in well = enough cells in well
Or2d2 (GeneID 258776) — Tnf reporter robust z-score = -0.26; fewer than 50 cells in well = enough cells in well
Clspn (GeneID 269582) — Tnf reporter robust z-score = -0.13; fewer than 50 cells in well = enough cells in well
